PubChem BioAssay AID652243 | Drosophila RNAi Screening Center | 2013

Assay: 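Fly genes required for human androgen receptor driven transcription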 (primary screen)
Cells: Drosophila S2R+ cells
Knock-down reagent: long dsRNA against Drosophila genes
Time to read-out: 72 h (48 h, then 24 h hormone)
Treatment: synthetic androgen R1881 at 10 nM for 24 h
Read-out: 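Firefly light from an androgen-responsive reporter and Renilla control light per well, raw and unnormalised, for each of two replicates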
Direction: firefly reporter light: higher = more light from androgen-responsive reporter; Renilla control light: higher = more constitutive control signal (cell number, transfection)
Call rule: 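Across duplicate plates, a knock-down whose log firefly/Renilla ratio shifted a set fold down or up from the GFP/LacZ control mean was a hit; the downward cut appears as both 1.5 and 3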
Meaning of the calls: active = hit: reporter lowered or raised; inactive = no hit
The screen tested about 24,000 reagents; shown is an unselected part of those that have a named target and a result. In the full data, 246 (1%) were called active. 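Plates not normalised; calls are printed but the firefly/Renilla ratio behind them is not deposited; fold cut for lowering reported inconsistently.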 The raw values are shown without normalisation. No sequences are given here. The record does not give: the amount of reagent.

bcd [DRSC12624] — firefly reporter light, replicate 1 = 71320; firefly reporter light, replicate 2 = 26500; Renilla control light, replicate 1 = 3.35e5; Renilla control light, replicate 2 = 4.00e5; activity call = inactive
bcd [DRSC25303] — firefly reporter light, replicate 1 = 6.77e5; firefly reporter light, replicate 2 = 8.86e5; Renilla control light, replicate 1 = 9.60e5; Renilla control light, replicate 2 = 9.04e5; activity call = inactive
Miro [DRSC15795] — firefly reporter light, replicate 1 = 92314; firefly reporter light, replicate 2 = 57366; Renilla control light, replicate 1 = 5.77e5; Renilla control light, replicate 2 = 5.03e5; activity call = inactive
mura [DRSC23145] — firefly reporter light, replicate 1 = 4.39e5; firefly reporter light, replicate 2 = 4.76e5; Renilla control light, replicate 1 = 9.33e5; Renilla control light, replicate 2 = 1.22e6; activity call = inactive
mura [DRSC26645] — firefly reporter light, replicate 1 = 3.72e5; firefly reporter light, replicate 2 = 3.35e5; Renilla control light, replicate 1 = 4.67e5; Renilla control light, replicate 2 = 4.29e5; activity call = inactive
Gasz [DRSC06829] — firefly reporter light, replicate 1 = 1.22e6; firefly reporter light, replicate 2 = 3.00e5; Renilla control light, replicate 1 = 1.04e6; Renilla control light, replicate 2 = 5.26e5; activity call = inactive
Gasz [DRSC27833] — firefly reporter light, replicate 1 = 2.56e5; firefly reporter light, replicate 2 = 1.74e5; Renilla control light, replicate 1 = 3.06e5; Renilla control light, replicate 2 = 5.66e5; activity call = inactive

Targets above whose gene name starts with M or m:
Miro [DRSC15795] — firefly reporter light, replicate 1 = 92314; firefly reporter light, replicate 2 = 57366; Renilla control light, replicate 1 = 5.77e5; Renilla control light, replicate 2 = 5.03e5; activity call = inactive
mura [DRSC23145] — firefly reporter light, replicate 1 = 4.39e5; firefly reporter light, replicate 2 = 4.76e5; Renilla control light, replicate 1 = 9.33e5; Renilla control light, replicate 2 = 1.22e6; activity call = inactive
mura [DRSC26645] — firefly reporter light, replicate 1 = 3.72e5; firefly reporter light, replicate 2 = 3.35e5; Renilla control light, replicate 1 = 4.67e5; Renilla control light, replicate 2 = 4.29e5; activity call = inactive

The results go on:
SC35 [DRSC03425] — firefly reporter light, replicate 1 = 2.45e5; firefly reporter light, replicate 2 = 4.16e5; Renilla control light, replicate 1 = 2.34e6; Renilla control light, replicate 2 = 2.68e6; activity call = inactive
SC35 [DRSC25427] — firefly reporter light, replicate 1 = 8.54e5; firefly reporter light, replicate 2 = 5.43e5; Renilla control light, replicate 1 = 1.93e6; Renilla control light, replicate 2 = 7.59e5; activity call = inactive
SC35 [DRSC27081] — firefly reporter light, replicate 1 = 1.80e5; firefly reporter light, replicate 2 = 2.00e5; Renilla control light, replicate 1 = 5.12e5; Renilla control light, replicate 2 = 2.33e5; activity call = inactive
SC35 [DRSC39081] — firefly reporter light, replicate 1 = 4.73e5; firefly reporter light, replicate 2 = 3.52e5; Renilla control light, replicate 1 = 1.31e6; Renilla control light, replicate 2 = 1.13e6; activity call = inactive
Tom40 [DRSC18796] — firefly reporter light, replicate 1 = 2.50e5; firefly reporter light, replicate 2 = 3.43e5; Renilla control light, replicate 1 = 2.35e6; Renilla control light, replicate 2 = 2.98e6; activity call = inactive
csw [DRSC18756] — firefly reporter light, replicate 1 = 1.73e5; firefly reporter light, replicate 2 = 2.70e5; Renilla control light, replicate 1 = 3.90e6; Renilla control light, replicate 2 = 2.99e6; activity call = inactive
csw [DRSC23326] — firefly reporter light, replicate 1 = 5.45e5; firefly reporter light, replicate 2 = 6.55e5; Renilla control light, replicate 1 = 7.05e5; Renilla control light, replicate 2 = 8.50e5; activity call = inactive
csw [DRSC36599] — activity call = inactive
csw [DRSC36600] — firefly reporter light, replicate 1 = 4.91e5; firefly reporter light, replicate 2 = 4.69e5; Renilla control light, replicate 1 = 1.07e6; Renilla control light, replicate 2 = 8.36e5; activity call = inactive
